The values below come from publication PMC6689091.

Amino acid sequences for entries named in this document (tags omitted).
UniProt O96013: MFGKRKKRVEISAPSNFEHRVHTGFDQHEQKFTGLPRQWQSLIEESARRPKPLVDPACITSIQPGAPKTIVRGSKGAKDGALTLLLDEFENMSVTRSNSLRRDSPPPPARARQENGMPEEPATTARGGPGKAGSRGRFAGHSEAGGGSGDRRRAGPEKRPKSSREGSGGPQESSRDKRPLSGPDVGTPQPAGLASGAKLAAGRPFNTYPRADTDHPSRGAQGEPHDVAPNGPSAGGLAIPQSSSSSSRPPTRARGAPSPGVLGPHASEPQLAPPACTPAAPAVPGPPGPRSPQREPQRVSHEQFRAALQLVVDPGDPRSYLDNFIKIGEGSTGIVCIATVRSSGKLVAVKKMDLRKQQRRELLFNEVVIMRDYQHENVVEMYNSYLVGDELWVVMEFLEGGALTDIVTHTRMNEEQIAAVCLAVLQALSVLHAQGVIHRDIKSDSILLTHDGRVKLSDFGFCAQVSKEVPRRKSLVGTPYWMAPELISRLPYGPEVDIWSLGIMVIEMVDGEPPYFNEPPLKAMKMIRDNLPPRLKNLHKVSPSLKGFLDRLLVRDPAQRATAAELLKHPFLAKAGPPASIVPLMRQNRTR

Experiment [1] has as its target T1, FLAG-tagged human RELB (human) (UniProt Q01201).
T1 sequence: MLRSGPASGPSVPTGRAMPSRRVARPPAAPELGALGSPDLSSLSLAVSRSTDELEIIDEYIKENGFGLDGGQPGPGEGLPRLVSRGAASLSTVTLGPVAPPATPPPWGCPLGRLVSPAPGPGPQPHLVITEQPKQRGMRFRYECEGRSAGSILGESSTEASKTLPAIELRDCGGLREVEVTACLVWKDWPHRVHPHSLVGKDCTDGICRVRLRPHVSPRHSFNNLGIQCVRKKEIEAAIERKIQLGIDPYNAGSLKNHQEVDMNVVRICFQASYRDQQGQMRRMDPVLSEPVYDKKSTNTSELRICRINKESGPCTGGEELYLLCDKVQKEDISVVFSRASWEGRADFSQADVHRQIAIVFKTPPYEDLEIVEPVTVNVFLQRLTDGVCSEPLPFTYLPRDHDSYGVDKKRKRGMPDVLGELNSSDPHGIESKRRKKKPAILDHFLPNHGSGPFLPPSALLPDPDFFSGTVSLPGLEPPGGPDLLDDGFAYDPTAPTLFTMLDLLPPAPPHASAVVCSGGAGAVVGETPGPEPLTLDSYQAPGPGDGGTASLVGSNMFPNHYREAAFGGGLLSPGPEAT
The experiment in a line: co-IP; FLAG-RELB immunoprecipitated (ANTI-FLAG M2 affinity gel) from whole-cell lysate of transfected cells; immunoblot for endogenous PAK4; cell line not given. A general note: In western blotting, separated proteins are transferred to a membrane and probed.

The next experiment concerns the target endogenous PAK4 (UniProt O96013). The experiment in a line: co-IP; endogenous PAK4 immunoprecipitated from whole-cell lysate (monoclonal mouse anti-PAK4, protein G-Sepharose; mouse IgG as control); immunoblot for endogenous RELB; cell line not given.

No constants are given. Whether binding was seen depends on the method and setting. In cells and extracts the contact can be indirect. Some entries that bind do so weakly or less than the wild type. For some assays here: Where a sequence is shown, tags or fusion partners need not be part of it.

For “endogenous PAK4 (from UniProt O96013 1-591)”, the binding result in experiment [1] is given as “binds”.

B1: endogenous RELB (cells of the endogenous PAK4 immunoprecipitation) (protein, UniProt Q01201 1-579)
chain: MLRSGPASGPSVPTGRAMPSRRVARPPAAPELGALGSPDLSSLSLAVSRSTDELEIIDEYIKENGFGLDGGQPGPGEGLPRLVSRGAASLSTVTLGPVAPPATPPPWGCPLGRLVSPAPGPGPQPHLVITEQPKQRGMRFRYECEGRSAGSILGESSTEASKTLPAIELRDCGGLREVEVTACLVWKDWPHRVHPHSLVGKDCTDGICRVRLRPHVSPRHSFNNLGIQCVRKKEIEAAIERKIQLGIDPYNAGSLKNHQEVDMNVVRICFQASYRDQQGQMRRMDPVLSEPVYDKKSTNTSELRICRINKESGPCTGGEELYLLCDKVQKEDISVVFSRASWEGRADFSQADVHRQIAIVFKTPPYEDLEIVEPVTVNVFLQRLTDGVCSEPLPFTYLPRDHDSYGVDKKRKRGMPDVLGELNSSDPHGIESKRRKKKPAILDHFLPNHGSGPFLPPSALLPDPDFFSGTVSLPGLEPPGGPDLLDDGFAYDPTAPTLFTMLDLLPPAPPHASAVVCSGGAGAVVGETPGPEPLTLDSYQAPGPGDGGTASLVGSNMFPNHYREAAFGGGLLSPGPEAT
As to B1, the binding entry with endogenous PAK4 is “binds”.
